Results taken from ChEMBL document CHEMBL4330060, “Design and development of some phenyl benzoxazole derivatives as a potent acetylcholinesterase inhibitor with antioxidant property to enhance learning and memory” (Eur J Med Chem, 2019).

Test: in vitro
Conditions: PAMPA, pH 7.4

SMILES: COc1cc2c(cc1OC)C(=O)C(CC1CCN(Cc3ccccc3)CC1)C2 (stereo unspecified) [DONEPEZIL]
- Papp at 18 h: 7.54 ×10⁻⁶ cm/s
